{
  "sequences": {"note": "Protein sequences, listed by entry. Tags and fused reporters are not part of them. Lines headed by an entry give the natural chain unless they say otherwise; changes in a name come on top.", "UniProt Q9NVH2, whole entry": "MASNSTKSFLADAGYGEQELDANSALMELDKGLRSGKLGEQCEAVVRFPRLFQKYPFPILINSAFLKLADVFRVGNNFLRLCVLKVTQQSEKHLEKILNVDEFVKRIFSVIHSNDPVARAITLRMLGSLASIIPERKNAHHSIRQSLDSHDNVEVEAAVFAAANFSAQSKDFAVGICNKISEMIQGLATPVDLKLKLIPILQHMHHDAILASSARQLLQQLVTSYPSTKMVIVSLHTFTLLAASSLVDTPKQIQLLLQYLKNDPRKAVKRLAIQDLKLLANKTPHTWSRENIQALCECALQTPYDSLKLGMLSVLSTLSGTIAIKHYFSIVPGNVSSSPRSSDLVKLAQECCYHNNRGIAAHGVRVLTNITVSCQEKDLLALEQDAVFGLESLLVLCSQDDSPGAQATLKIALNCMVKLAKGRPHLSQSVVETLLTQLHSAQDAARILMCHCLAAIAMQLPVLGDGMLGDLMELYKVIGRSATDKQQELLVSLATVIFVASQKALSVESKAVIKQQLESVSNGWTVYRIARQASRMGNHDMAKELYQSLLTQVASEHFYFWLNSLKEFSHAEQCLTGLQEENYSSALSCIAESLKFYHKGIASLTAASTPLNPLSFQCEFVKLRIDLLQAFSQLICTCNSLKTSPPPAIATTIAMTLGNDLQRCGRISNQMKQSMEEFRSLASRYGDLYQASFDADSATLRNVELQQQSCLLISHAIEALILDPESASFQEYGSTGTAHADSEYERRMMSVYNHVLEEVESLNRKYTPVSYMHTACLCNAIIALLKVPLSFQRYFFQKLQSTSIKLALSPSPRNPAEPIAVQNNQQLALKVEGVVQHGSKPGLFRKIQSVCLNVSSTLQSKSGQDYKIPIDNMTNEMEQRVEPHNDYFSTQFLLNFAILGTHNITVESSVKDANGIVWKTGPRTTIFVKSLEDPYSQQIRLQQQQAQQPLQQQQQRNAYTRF", "UniProt Q9Y2K2": "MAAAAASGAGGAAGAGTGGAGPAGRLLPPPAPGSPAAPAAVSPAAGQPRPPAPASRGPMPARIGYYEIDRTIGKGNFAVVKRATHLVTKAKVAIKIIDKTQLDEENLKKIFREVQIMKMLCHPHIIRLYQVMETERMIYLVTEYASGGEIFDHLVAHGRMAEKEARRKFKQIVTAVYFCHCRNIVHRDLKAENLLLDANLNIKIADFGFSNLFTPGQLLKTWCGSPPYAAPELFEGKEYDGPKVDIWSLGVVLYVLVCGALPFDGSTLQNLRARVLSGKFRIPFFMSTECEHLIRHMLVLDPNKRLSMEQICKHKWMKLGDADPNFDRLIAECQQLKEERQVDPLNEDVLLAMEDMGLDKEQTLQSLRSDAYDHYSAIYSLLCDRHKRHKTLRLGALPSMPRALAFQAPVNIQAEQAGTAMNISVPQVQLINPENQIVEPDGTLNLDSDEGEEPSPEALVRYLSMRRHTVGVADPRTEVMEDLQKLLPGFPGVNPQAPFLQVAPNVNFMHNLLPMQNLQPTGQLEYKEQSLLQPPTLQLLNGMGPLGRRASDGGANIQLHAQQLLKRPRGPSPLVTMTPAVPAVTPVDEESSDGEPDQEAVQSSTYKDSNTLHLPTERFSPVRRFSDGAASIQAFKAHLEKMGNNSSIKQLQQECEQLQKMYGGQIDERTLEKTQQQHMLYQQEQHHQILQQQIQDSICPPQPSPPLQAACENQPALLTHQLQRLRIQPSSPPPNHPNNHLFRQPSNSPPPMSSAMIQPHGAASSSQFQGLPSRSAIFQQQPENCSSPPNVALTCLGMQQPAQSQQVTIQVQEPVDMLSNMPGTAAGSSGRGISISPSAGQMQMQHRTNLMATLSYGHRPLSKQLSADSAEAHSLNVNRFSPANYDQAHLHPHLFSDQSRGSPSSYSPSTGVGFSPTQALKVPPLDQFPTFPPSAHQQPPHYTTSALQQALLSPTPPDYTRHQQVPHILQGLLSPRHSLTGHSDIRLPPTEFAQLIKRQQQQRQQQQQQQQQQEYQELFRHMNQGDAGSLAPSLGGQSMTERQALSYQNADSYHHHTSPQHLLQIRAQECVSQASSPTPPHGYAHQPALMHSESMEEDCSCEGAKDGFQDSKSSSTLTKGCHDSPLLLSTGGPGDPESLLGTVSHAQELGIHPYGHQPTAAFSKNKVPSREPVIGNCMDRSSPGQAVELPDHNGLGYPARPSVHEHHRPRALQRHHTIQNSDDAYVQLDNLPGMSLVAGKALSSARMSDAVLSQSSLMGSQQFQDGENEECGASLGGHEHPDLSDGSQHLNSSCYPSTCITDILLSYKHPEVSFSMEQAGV", "UniProt A2RU67": "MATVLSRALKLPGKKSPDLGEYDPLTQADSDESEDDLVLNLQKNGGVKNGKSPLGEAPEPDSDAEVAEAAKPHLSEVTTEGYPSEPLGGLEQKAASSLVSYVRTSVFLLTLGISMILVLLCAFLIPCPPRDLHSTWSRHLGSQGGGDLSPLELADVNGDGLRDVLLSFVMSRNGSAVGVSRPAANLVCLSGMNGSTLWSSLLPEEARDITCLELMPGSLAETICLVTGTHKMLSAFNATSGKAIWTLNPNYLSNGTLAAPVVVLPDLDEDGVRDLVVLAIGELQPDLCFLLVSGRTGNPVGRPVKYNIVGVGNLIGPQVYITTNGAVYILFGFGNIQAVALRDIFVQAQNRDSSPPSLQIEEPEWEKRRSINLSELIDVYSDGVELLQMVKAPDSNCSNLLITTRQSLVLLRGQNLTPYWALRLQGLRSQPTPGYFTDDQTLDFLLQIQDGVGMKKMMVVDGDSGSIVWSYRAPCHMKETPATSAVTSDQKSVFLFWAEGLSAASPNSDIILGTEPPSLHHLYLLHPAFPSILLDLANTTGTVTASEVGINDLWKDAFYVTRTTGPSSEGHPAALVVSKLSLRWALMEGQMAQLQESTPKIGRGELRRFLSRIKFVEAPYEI", "UniProt Q8TB96": "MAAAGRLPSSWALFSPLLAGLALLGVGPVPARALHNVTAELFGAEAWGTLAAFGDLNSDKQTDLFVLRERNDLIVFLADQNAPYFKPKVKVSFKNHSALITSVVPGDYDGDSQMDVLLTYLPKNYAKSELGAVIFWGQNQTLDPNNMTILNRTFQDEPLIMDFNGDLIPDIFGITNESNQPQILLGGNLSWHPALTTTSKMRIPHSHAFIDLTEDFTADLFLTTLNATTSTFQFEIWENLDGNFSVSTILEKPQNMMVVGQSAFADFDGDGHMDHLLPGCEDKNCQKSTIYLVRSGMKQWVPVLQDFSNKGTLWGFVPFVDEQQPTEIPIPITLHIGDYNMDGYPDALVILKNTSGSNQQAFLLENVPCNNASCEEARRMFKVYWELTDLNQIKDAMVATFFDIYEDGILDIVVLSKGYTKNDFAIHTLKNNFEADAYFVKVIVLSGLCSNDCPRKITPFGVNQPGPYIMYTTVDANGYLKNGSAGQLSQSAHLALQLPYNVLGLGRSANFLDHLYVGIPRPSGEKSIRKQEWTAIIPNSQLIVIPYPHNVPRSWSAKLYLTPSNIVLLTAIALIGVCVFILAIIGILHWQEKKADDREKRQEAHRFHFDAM", "UniProt Q70UQ0": "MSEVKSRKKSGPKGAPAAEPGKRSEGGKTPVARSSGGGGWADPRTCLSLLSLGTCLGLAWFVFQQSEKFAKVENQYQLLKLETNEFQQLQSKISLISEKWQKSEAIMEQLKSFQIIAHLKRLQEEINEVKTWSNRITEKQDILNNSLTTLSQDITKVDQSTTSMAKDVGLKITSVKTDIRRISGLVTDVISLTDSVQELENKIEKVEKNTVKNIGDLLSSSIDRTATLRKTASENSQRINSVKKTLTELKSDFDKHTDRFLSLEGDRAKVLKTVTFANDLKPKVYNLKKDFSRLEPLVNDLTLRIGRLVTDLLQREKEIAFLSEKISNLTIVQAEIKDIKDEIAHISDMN", "UniProt Q9ULR0": "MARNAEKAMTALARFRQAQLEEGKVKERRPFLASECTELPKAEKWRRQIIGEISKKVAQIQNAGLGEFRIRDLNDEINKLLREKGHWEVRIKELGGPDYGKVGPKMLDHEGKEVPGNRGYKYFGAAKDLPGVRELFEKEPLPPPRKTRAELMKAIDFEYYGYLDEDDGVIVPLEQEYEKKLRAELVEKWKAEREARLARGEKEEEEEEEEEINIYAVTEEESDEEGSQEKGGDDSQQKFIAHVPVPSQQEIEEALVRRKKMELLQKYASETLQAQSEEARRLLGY", "UniProt P48200": "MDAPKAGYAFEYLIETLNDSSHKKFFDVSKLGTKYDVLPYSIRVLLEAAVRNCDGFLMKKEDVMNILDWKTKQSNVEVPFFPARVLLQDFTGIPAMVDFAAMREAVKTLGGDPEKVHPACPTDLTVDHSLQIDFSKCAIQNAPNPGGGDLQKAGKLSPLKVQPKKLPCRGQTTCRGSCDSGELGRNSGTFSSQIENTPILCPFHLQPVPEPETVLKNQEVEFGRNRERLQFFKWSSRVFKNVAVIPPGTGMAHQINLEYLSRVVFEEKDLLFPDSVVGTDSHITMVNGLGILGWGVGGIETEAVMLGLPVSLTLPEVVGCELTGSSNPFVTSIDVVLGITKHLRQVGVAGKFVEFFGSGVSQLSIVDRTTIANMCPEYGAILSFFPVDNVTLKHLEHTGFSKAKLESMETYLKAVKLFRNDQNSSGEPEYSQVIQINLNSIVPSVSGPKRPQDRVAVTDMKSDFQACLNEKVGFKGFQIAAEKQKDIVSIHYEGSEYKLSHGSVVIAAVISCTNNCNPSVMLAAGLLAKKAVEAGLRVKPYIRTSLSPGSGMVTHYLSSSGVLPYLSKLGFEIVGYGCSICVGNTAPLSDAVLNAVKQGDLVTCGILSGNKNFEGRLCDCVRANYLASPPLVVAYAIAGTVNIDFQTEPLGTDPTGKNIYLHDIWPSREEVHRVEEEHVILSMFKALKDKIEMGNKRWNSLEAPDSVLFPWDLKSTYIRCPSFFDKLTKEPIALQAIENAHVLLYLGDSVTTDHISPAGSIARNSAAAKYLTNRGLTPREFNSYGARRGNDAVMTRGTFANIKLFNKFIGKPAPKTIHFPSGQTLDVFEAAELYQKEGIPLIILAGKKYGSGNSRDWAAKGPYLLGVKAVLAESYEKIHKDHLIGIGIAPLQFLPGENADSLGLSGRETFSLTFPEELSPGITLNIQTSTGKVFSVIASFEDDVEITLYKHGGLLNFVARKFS", "UniProt Q9HBG6": "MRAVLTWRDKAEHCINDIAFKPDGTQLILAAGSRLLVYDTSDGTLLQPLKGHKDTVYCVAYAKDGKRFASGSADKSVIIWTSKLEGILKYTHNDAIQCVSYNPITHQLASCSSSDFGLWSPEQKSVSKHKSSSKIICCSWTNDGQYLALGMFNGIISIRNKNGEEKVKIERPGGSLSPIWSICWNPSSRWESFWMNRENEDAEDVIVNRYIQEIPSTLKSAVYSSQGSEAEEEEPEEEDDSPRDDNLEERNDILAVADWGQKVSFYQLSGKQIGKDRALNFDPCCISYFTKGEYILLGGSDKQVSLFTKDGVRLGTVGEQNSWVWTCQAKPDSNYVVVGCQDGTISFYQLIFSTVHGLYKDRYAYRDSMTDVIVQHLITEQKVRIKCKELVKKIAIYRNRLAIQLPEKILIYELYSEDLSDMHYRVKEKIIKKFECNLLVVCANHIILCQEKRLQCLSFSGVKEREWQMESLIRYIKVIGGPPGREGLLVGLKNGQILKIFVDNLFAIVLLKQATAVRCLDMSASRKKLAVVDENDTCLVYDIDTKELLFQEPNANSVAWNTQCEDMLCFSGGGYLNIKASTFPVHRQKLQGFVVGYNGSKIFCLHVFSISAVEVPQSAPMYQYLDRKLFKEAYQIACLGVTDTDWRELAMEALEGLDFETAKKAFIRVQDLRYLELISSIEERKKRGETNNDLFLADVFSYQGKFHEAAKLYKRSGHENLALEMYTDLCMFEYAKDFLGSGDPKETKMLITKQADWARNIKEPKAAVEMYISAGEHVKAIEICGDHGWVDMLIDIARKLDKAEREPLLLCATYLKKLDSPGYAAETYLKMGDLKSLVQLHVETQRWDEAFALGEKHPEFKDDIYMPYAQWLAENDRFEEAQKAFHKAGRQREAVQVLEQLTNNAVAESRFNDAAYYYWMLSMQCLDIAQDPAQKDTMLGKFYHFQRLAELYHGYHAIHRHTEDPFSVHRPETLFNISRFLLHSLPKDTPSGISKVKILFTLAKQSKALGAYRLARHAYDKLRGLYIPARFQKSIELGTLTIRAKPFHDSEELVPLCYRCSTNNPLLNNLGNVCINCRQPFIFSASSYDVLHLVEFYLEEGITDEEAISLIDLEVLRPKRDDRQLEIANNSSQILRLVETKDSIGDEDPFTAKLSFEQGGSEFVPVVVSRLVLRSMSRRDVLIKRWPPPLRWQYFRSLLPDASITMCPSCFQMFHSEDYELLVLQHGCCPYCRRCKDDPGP"},
  "source": "the supplement of paper PMC7666118",
  "note": "The list shows a part of the results.",
  "data": [
    {"compound": "COc1ccc(Cn2ccc3cc(C)c(C(=O)NO)cc32)cc1", "experiment": "dose-dependent thermal stabilisation call (2D-TPP, DLPTP, 10% FDR) (binary (1 = stabilised)); higher = stabilised by the compound", "conditions": "system: HL-60 intact cells; concentration range 0.04-10 µM", "protocol": "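2D thermal proteome profiling in intact HL-60 cells treated with BRD-3811 (0, 0.04, 0.29, 2, 10 uM) for 90 min at 37 C, then heated 3 min at one of 12 temperatures (42-63.9 C). Soluble protein was quantified by TMT10 MS. The value is the DLPTP call of the paper: dose-dependent thermal stabilisation over all temperatures at 10% FDR (F-test of a dose-response against a flat model); one experiment, one call per tested protein.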", "values": [
      {"target": "IQWD1 (UniProt Q58WW2)", "dose-dependent thermal stabilisation call": "inactive: 0"},
      {"target": "IGBP1 (UniProt P78318)", "dose-dependent thermal stabilisation call": "inactive: 0"},
      {"target": "INTS7 (UniProt Q9NVH2)", "dose-dependent thermal stabilisation call": "inactive: 0"},
      {"target": "ITM2B (UniProt Q9Y287)", "dose-dependent thermal stabilisation call": "inactive: 0"},
      {"target": "KEAP1 (UniProt Q14145)", "dose-dependent thermal stabilisation call": "inactive: 0"},
      {"target": "KBTBD4 (UniProt Q9NVX7)", "dose-dependent thermal stabilisation call": "inactive: 0"},
      {"target": "IPO13 (UniProt O94829)", "dose-dependent thermal stabilisation call": "inactive: 0"},
      {"target": "KIFC1 (UniProt Q9BW19)", "dose-dependent thermal stabilisation call": "inactive: 0"},
      {"target": "KIAA0999 (UniProt Q9Y2K2)", "dose-dependent thermal stabilisation call": "inactive: 0"},
      {"target": "IGSF8 (UniProt Q969P0)", "dose-dependent thermal stabilisation call": "inactive: 0"},
      {"target": "KIAA1467 (UniProt A2RU67)", "dose-dependent thermal stabilisation call": "inactive: 0"},
      {"target": "INTS8 (UniProt Q75QN2)", "dose-dependent thermal stabilisation call": "inactive: 0"},
      {"target": "KIAA0391 (UniProt O15091)", "dose-dependent thermal stabilisation call": "inactive: 0"},
      {"target": "IGF2BP1 (UniProt Q9NZI8)", "dose-dependent thermal stabilisation call": "inactive: 0"},
      {"target": "IDH3B (UniProt O43837)", "dose-dependent thermal stabilisation call": "inactive: 0"},
      {"target": "KIF22 (UniProt Q14807)", "dose-dependent thermal stabilisation call": "inactive: 0"},
      {"target": "HTT (UniProt P42858)", "dose-dependent thermal stabilisation call": "inactive: 0"},
      {"target": "KIAA0430 (UniProt Q9Y4F3)", "dose-dependent thermal stabilisation call": "inactive: 0"},
      {"target": "ITFG1 (UniProt Q8TB96)", "dose-dependent thermal stabilisation call": "inactive: 0"},
      {"target": "ITSN1 (UniProt Q15811)", "dose-dependent thermal stabilisation call": "inactive: 0"},
      {"target": "KIAA1632 (UniProt Q9HCE0)", "dose-dependent thermal stabilisation call": "inactive: 0"},
      {"target": "IKIP (UniProt Q70UQ0)", "dose-dependent thermal stabilisation call": "inactive: 0"},
      {"target": "IGF2R (UniProt P11717)", "dose-dependent thermal stabilisation call": "inactive: 0"},
      {"target": "ISY1 (UniProt Q9ULR0)", "dose-dependent thermal stabilisation call": "inactive: 0"},
      {"target": "KIAA1279 (UniProt Q96EK5)", "dose-dependent thermal stabilisation call": "inactive: 0"},
      {"target": "IREB2 (UniProt P48200)", "dose-dependent thermal stabilisation call": "inactive: 0"},
      {"target": "KRAS (UniProt P01116)", "dose-dependent thermal stabilisation call": "inactive: 0"},
      {"target": "KIAA0892 (UniProt Q9Y6X3)", "dose-dependent thermal stabilisation call": "inactive: 0"},
      {"target": "KLHDC4 (UniProt Q8TBB5)", "dose-dependent thermal stabilisation call": "inactive: 0"},
      {"target": "IDUA (UniProt P35475)", "dose-dependent thermal stabilisation call": "inactive: 0"},
      {"target": "IFT122 (UniProt Q9HBG6)", "dose-dependent thermal stabilisation call": "inactive: 0"},
      {"target": "JPH1 (UniProt Q9HDC5)", "dose-dependent thermal stabilisation call": "inactive: 0"},
      {"target": "KLHL20 (UniProt Q9Y2M5)", "dose-dependent thermal stabilisation call": "inactive: 0"},
      {"target": "IDH3A (UniProt P50213)", "dose-dependent thermal stabilisation call": "inactive: 0"},
      {"target": "IFI35 (UniProt P80217)", "dose-dependent thermal stabilisation call": "inactive: 0"},
      {"target": "ITM2A (UniProt O43736)", "dose-dependent thermal stabilisation call": "inactive: 0"}
    ]}
  ]
}
